Taken from: PubChem BioAssay AID686938 (Drosophila RNAi Screening Center, 2013)
Aim: 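Knock-downs reducing store-operated calcium influx in Drosophila cells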 (primary screen). Cells: Drosophila S2R+ cells. Reagent: long dsRNA against Drosophila genes, about 0.25 µg dsRNA per well, roughly 10,000 cells. Duration: 5 days of knock-down before the calcium assay. Conditions: thapsigargin (SERCA pump blocker) to empty calcium stores; entry signal taken 4 min after adding it. Read-out: 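Per-well fluo-4 fluorescence in two replicates, unnormalised, measured in resting cells and 4 min after store depletion by the SERCA blocker thapsigargin; ratio of the two present in few wells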. Reading the numbers: calcium entry signal: higher = stronger calcium signal after store depletion; entry to resting ratio: higher = more calcium entry relative to resting level; resting calcium signal: higher = higher resting calcium signal. Units: calcium entry signal in fluorescence units; resting calcium signal in fluorescence units. Rule for the call: 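Hit if the duplicate-averaged plate z-score for entry over resting signal is under −3; wells with weak total dye signal (Fmax z < −2) or more than 5 off-targets removed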. Calls: active = strongly reduced calcium entry; inactive = no strong reduction.
In all, the deposit lists about 23,000 reagents; below is a random part of those that have a named target and a result. In the full data, 75 (0.33%) were called active. 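Raw plate signals without normalisation; calls rest on plate z-scores that were not deposited; ratio present for only 364 wells.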 Not given: the dose of the treatment.

After knock-down of CG31404 [DRSC15497] the results were calcium entry signal, replicate 1 = 3.72e7; calcium entry signal, replicate 2 = 3.81e7; resting calcium signal, replicate 1 = 4.88e7; resting calcium signal, replicate 2 = 1.68e7; inactive.
beat-Vc [DRSC12927] gave calcium entry signal, replicate 1 = 4.09e7; calcium entry signal, replicate 2 = 3.85e7; resting calcium signal, replicate 1 = 2.18e7; resting calcium signal, replicate 2 = 1.77e7; inactive.
After knock-down of beat-Vc [DRSC14849], the screen gave calcium entry signal, replicate 1 = 4.08e7; calcium entry signal, replicate 2 = 3.16e7; resting calcium signal, replicate 1 = 2.02e7; resting calcium signal, replicate 2 = 1.53e7; inactive.
Depletion of CG31677 [DRSC22023] gave: calcium entry signal, replicate 1 = 2.46e7; calcium entry signal, replicate 2 = 4.52e7; resting calcium signal, replicate 1 = 1.22e7; resting calcium signal, replicate 2 = 2.08e7; inactive.
After knock-down of Rif1 [DRSC05593] the results were calcium entry signal, replicate 1 = 3.66e7; calcium entry signal, replicate 2 = 5.23e7; resting calcium signal, replicate 1 = 3.21e7; resting calcium signal, replicate 2 = 2.16e7; inactive.
Npc2d [DRSC14551] showed calcium entry signal, replicate 1 = 2.81e7; calcium entry signal, replicate 2 = 2.20e7; resting calcium signal, replicate 1 = 1.42e7; resting calcium signal, replicate 2 = 1.18e7; inactive.
With knock-down of Ugt50B3 [DRSC04778], the screen gave calcium entry signal, replicate 1 = 2.40e7; calcium entry signal, replicate 2 = 3.14e7; resting calcium signal, replicate 1 = 1.27e7; resting calcium signal, replicate 2 = 1.33e7; inactive.
For Ugt50B3 [DRSC04779] the deposit lists calcium entry signal, replicate 1 = 2.28e7; calcium entry signal, replicate 2 = 3.59e7; resting calcium signal, replicate 1 = 1.22e7; resting calcium signal, replicate 2 = 1.55e7; inactive.
After knock-down of Ugt50B3 [DRSC21419], the screen gave calcium entry signal, replicate 1 = 4.41e7; calcium entry signal, replicate 2 = 3.20e7; resting calcium signal, replicate 1 = 2.54e7; resting calcium signal, replicate 2 = 1.45e7; inactive.

No new results follow: an excerpt of the list.
Rif1 [DRSC05593] — calcium entry signal, replicate 1: 3.66e7; calcium entry signal, replicate 2: 5.23e7; resting calcium signal, replicate 1: 3.21e7; resting calcium signal, replicate 2: 2.16e7; outcome: inactive
Npc2d [DRSC14551] — calcium entry signal, replicate 1: 2.81e7; calcium entry signal, replicate 2: 2.20e7; resting calcium signal, replicate 1: 1.42e7; resting calcium signal, replicate 2: 1.18e7; outcome: inactive

The results go on:
Silencing of CG18273 [DRSC18150] gave: calcium entry signal, replicate 1 = 2.32e7; calcium entry signal, replicate 2 = 2.83e7; entry to resting ratio 1.9; resting calcium signal, replicate 1 = 1.21e7; resting calcium signal, replicate 2 = 1.22e7; inactive.
CG18273 [DRSC18505] scored calcium entry signal, replicate 1 = 2.97e7; calcium entry signal, replicate 2 = 3.25e7; resting calcium signal, replicate 1 = 1.75e7; resting calcium signal, replicate 2 = 1.71e7; inactive.
With knock-down of kune [DRSC04860] the results were calcium entry signal, replicate 1 = 3.89e7; calcium entry signal, replicate 2 = 5.39e7; resting calcium signal, replicate 1 = 2.02e7; resting calcium signal, replicate 2 = 2.27e7; inactive.
Against CG31100 [DRSC14453] the deposit lists calcium entry signal, replicate 1 = 4.99e7; calcium entry signal, replicate 2 = 3.65e7; resting calcium signal, replicate 1 = 2.37e7; resting calcium signal, replicate 2 = 1.75e7; inactive.
Depletion of CG31100 [DRSC14455] came out at: calcium entry signal, replicate 1 = 5.23e7; calcium entry signal, replicate 2 = 3.60e7; resting calcium signal, replicate 1 = 2.41e7; resting calcium signal, replicate 2 = 1.59e7; inactive.
Knock-down of CG16753 [DRSC08489] came out at: calcium entry signal, replicate 1 = 3.24e7; calcium entry signal, replicate 2 = 2.34e7; resting calcium signal, replicate 1 = 2.35e7; resting calcium signal, replicate 2 = 1.03e7; inactive.
Against CG7974 [DRSC08607], the values are calcium entry signal, replicate 1 = 4.03e7; calcium entry signal, replicate 2 = 3.63e7; resting calcium signal, replicate 1 = 1.73e7; resting calcium signal, replicate 2 = 1.64e7; inactive.
Against CG10433 [DRSC04068], the entry reads calcium entry signal, replicate 1 = 4.04e7; resting calcium signal, replicate 1 = 2.14e7; inactive.
For Ilk [DRSC11868] the deposit lists calcium entry signal, replicate 1 = 6.26e7; calcium entry signal, replicate 2 = 2.33e7; resting calcium signal, replicate 1 = 2.58e7; resting calcium signal, replicate 2 = 1.20e7; inactive.
With knock-down of Cortactin [DRSC16612], the screen gave calcium entry signal, replicate 1 = 4.26e7; calcium entry signal, replicate 2 = 3.80e7; resting calcium signal, replicate 1 = 1.96e7; resting calcium signal, replicate 2 = 1.67e7; inactive.
With knock-down of CG42319 [DRSC06645] the results were calcium entry signal, replicate 1 = 2.74e7; calcium entry signal, replicate 2 = 4.70e7; resting calcium signal, replicate 1 = 1.53e7; resting calcium signal, replicate 2 = 1.87e7; inactive.
For CG42319 [DRSC06646], the values are calcium entry signal, replicate 1 = 2.49e7; calcium entry signal, replicate 2 = 4.62e7; resting calcium signal, replicate 1 = 1.38e7; resting calcium signal, replicate 2 = 1.90e7; inactive.
Depletion of CG42319 [DRSC22426] resulted in: calcium entry signal, replicate 1 = 3.82e7; calcium entry signal, replicate 2 = 3.86e7; resting calcium signal, replicate 1 = 1.92e7; resting calcium signal, replicate 2 = 1.72e7; inactive.
